Reference: PMC10163288
Some of the results follow.

B1: il2ra_site1_3nfp_sap_23_mot_HHH_b1_02174_af2_000000014_0001_1_18_H_._HHH_b1_01029_af2_0001_0000100006_0000001_0_0001_af2pred_0001_af2pred_swapped (protein)
chain: SSSSSEETKEAEELLKEILKLLREGNPEEAQRLIEELERLAKEANSRALKWLVEVLQKELNSSSS
B2: il2ra_site2_2erj_sap_28_mot_ca9fcc9ace360711d783d1260e4fbff1_0001_1_af2_000000007_0001_15_32_H_._HHH_b2_02269_0001_0000300005_0000001_1_0001_af2pred_0001_af2pre … (protein)
chain: SFIEIEIEDELAAKAVSRFAKWAGVEVEENGKSVTVEVPDPELAKFVEEAARQIEPEVQVRTSGS
B3: il2ra_site2_3nfp_sap_18_mot_HHH_b2_06150_000000217_0001_39_53_H_._HHH_b1_05319_af2_0001_0000300014_0000001_0_0001 (protein)
chain: SSSSDEEERVRELLKEAQEALEKGNPEEARRILQEAAQLAFELNDSELFYLIAELLLKVVKSSSS
B4: il2ra_site2_2erj_normal_mot_HHH_b1_08231_000000052_0001_20_37_H_._HHH_b1_04928_0001_0000400007_0000001_0 (protein)
chain: SSSDLEERVEELLERAEELLKEGNPEEALELLSEAYAIVYELGDDELVAEVLELAAEIVRAISSS
B5: il2ra_site1_1z92_normal_mot_7891c0d1f2c7eedbb314a075540956e2_0001_1_af2_000000230_0001_54_65_H_._HHH_b1_04373_af2_0001_0000400030_0000001_1 (protein)
chain: SSSSSSSEVEEIVKEIVEKFGLNERQKEKLEKLAEEFLERGADPEAIRYALEVAAKFLRSSSSSS
B6: il2ra_site1_2b5i_normal_mot_HHH_b2_04910_000000118_0001_1_19_H_._HHH_b1_02607_0001_0000400026_0000001_1_af2pred_0001_af2pred_1 (protein)
chain: SSSSDQEELEELLREANELFKNGDPEEARRVLEEAIELAREAGDRALLRFLEVALKIIEASSSSS
B7: il2ra_site2_3nfp_normal_mot_HHH_b1_08081_af2_000000020_0001_38_50_H_._HHH_b2_06530_0001_0000300035_0000001_0 (protein)
chain: SSSDEAREYLKAVIELARLLLERGDPEFAKRIVKMAVQLARDRGDEELLKEAEELEEEIEKSSSS
B8: il2ra_site1_3nfp_sap_16_mot_HHH_b2_02463_000000293_0001_1_19_H_._HHH_b2_04275_0001_0000500033_0000001_0_0001 (protein)
chain: SSSSTEELEELLRLVEEAYRAAQEGDEELVEELLEEAEELARKLGDKIAQRLLKDIKENTSSSSS
B9: il2ra_site1_1z92_sap_7_mot_35b94aac26684153dbcc4bf06a514b74_0001_1_000000013_0001_17_31_H_._2c46b57de5df830a699d451437f22a7b_0001_0001_0000200026_0000001_0_0001 … (protein)
chain: SLEEELRELLKELGIPPEEIEAILRDLERAERFAGDPKRALKMLLRALESLGDPAAEAVRELLER
B10: il2ra_site1_2b5i_normal_mot_22370d59370c406a0c205a431f537cfa_0001_af2_000000027_0001_1_31_H_._HHH_b2_03163_af2_0001_0000200016_0000001_0 (protein)
chain: SSSSNELARFATEVVWRLIYRLGLSREQAQRLNRIASELVWRGFSEEEIEEILQEEAEELKSSSS
B11: il2ra_site1_3nfp_normal_mot_HHH_b1_05070_af2_000000282_0001_43_57_H_._f36904accf409f30af2549b3cc9a15d7_0001_1_0001_0000100005_0000001_0 (protein)
chain: SLEEELEELLREYLPPKEIKVVVYFARMAAKALNDPKEALERLLKAAERLNNPDLERVLRELLEK
B12: il2ra_site1_2b5i_normal_mot_HHH_b2_08262_af2_000000095_0001_1_15_H_._HHH_b1_05819_af2_0001_0000200018_0000001_1_af2pred_0001_af2pred_1 (protein)
chain: SSSSSSDQEATELYLEASRLFLNGNPEEAKEILEEALEEAEKAGDEVAQRDIRKFLELLKSSSSS
B13: il2ra_site2_2erj_sap_19_mot_HHH_b1_00071_af2_000000225_0001_40_56_H_._HHH_b2_05943_af2_0001_0000400009_0000001_0_0001 (protein)
chain: SSSSDEEVRELIREAEELLERGNPEEALEVVREAATIAFQEGDFELFSILAELTEEIARTSSSSS
B14: il2ra_site2_2erj_sap_19_mot_HHH_b2_07898_000000271_0001_1_14_H_._HHH_b1_07400_0001_0000200010_0000001_0_0001 (protein)
chain: SSSSSDEELRELYELAVELLRLLAEGDEEKVKELLERLEELAERLGSDNAKELVEIARKRISSSS
B15: il2ra_site2_2erj_sap_27_mot_HHH_b1_02968_000000142_0001_22_39_H_._HHH_b1_05540_0001_0000200016_0000001_0_0001 (protein)
chain: SSSSDEWLRELYELANRVTHLLAKGNPEEAREVAEEALELAEENDSRNAHEILRFLLEQLSSSSS
B16: il2ra_site1_2b5i_sap_10_mot_2cbe48e66a1f39b3fed734b245ab0a04_0001_000000015_0001_17_31_H_._HHH_b1_04625_0001_0000100002_0000001_0_0001_af2pred_dldesign_0_af2pre … (protein)
chain: SSSSDELYEEIERLYKEALELYKAGKREEAKEVLEKALELAEKAKDEKIIAELKRLLELLSSSSS
B17: il2ra_site1_3nfp_sap_7_mot_HHH_b2_00594_af2_000000186_0001_1_15_H_._HHH_b1_02490_0001_0001200022_0000001_0_0001_af2pred_0001_af2pred (protein)
chain: SSSSNRVELLHEAAERLFELLEEGDEEEAERLLEEVARELRELGSEKAARSLERAFEIFLKSSSS
B18: il2ra_site2_3nfp_normal_mot_HHH_b2_04451_000000238_0001_21_37_H_._HHH_b1_07886_af2_0001_0001100043_0000001_0 (protein)
chain: SSSSSSEEVEELLQEARELLEEGDPYEALEVLLKASKIAAELGDEELARKVLKLFELIQRSSSSS
B19: il2ra_site2_2erj_normal_mot_HHH_b1_02968_000000142_0001_22_39_H_._HHH_b1_07717_0001_0000300013_0000001_0 (protein)
chain: SSSSSDEEEYRERVEELLEEAKHIEDLREAYKLAARALRLASEADDPELQRLVQKVVEELSSSSS
B20: il2ra_site2_2erj_sap_22_mot_HHH_b2_00138_000000178_0001_20_37_H_._HHH_b2_06234_af2_0001_0000100003_0000001_0_0001_af2pred_0001_1_af2pred_swapped (protein)
chain: SSSSSESEERARELAEEVNKLLANGDPEEAEEVLKELEELAEELNDNTARILLELLRRWLSSSSS
B21: il2ra_site1_1z92_normal_mot_HHH_b2_07758_000000290_0001_1_17_H_._HHH_b1_04987_af2_0001_0000200015_0000001_0_af2pred_0001_af2pred (protein)
chain: SSSSSSNKLLKVAIEIAIKQAGLSEEDKEKLEELLEELEERGIDLLEISRELDKLALELSSSSSS
B22: il2ra_site1_1z92_sap_13_mot_HHH_b1_03619_000000222_0001_22_39_H_._HHH_b1_03386_0001_0000500018_0000001_0_0001_af2pred_0001_af2pred (protein)
chain: SSSSDERLELQAENIVRLVVRTAGLSEEDREELEEIAEELLKEGVDYREVAQIIEELALRLSSSS
B23: il2ra_site2_2erj_normal_mot_ef9cab360851164f21447f5d7f54bf9c_0001_1_000000008_0001_32_48_H_._HHH_b1_06039_af2_0001_0000200010_0000001_0 (protein)
chain: SSSSDELEELFRALSKLLHLIYRGDEEEFEELLREIKELAEELDSENVKEIVEFLERHFHSSSSS
B24: il2ra_site2_3nfp_normal_mot_HHH_b2_01155_000000159_0001_38_52_H_._HHH_b2_01829_0001_0000100005_0000001_0 (protein)
chain: SSSSSDEEERRVEELLEEAKRIEDEEEARELLAEALHLAYENRDSELFMLVAEVAFELLQSSSSS
B25: il2ra_site1_1z92_normal_mot_HHH_b1_03465_af2_000000044_0001_40_52_H_._HHH_b1_04869_af2_0001_0000300022_0000001_0 (protein)
chain: SSSSSDEEHERIEELFREAARIPDPEEARKVIEEALELAEELGSEELARDLREFLERLNSSSSSS
B26: il2ra_site2_2erj_sap_28_mot_b7929789c52af68ead34d201ecbf2d56_0001_1_000000071_0001_19_33_H_._HHH_b2_00937_af2_0001_0000100003_0000001_0_0001 (protein)
chain: SSSSNEELRELFKLAVELMRLTEEGDEEEFEKLWEKAEKLAEKLQSDNVKEILERLEKNVSSSSS
B27: il2ra_site2_2erj_normal_mot_HHH_b2_03913_af2_000000182_0001_1_19_H_._HHH_b2_00910_af2_0001_0000500011_0000001_0 (protein)
chain: SSSDQEAAELAAEAWREAAKLFRNGNPEEAKEVLQEYAELVKELGDEEALEAIERALKFLNSSSS
B28: il2ra_site2_2erj_normal_mot_HHH_b2_02303_000000050_0001_43_56_H_._HHH_b1_01446_0001_0000700019_0000001_1 (protein)
chain: SSSSSDVEEEVLELIAEAAHIKDPEEVRRLLEEALELAEENNDELLRRYVELSLRLAERSSSSSS
B29: il2ra_site2_3nfp_sap_15_mot_HHH_b1_08498_000000146_0001_21_37_H_._HHH_b1_04072_0001_0000600014_0000001_0_0001 (protein)
chain: DEEKELEKKAREAVEKNDPELALRVVDAAAQNPEAWEELIRVLRELDNLLRLYELAVRAYRKKRS
B30: il2ra_site1_2b5i_sap_12_mot_HHH_b1_05927_af2_000000070_0001_1_20_H_._HHH_b1_04668_0001_0000300014_0000001_0_0001_af2pred_dldesign_0_af2pred (protein)
chain: SSSSSSRRELLELAEKALKKLGAANKDEEYDELEALYEEYLRTRDPALAERLKEKSEKLLSSSSS
B31: il2ra_site1_3nfp_normal_mot_HHH_b1_08036_000000035_0001_1_19_H_._HHH_b2_05909_af2_0001_0000100003_0000001_0 (protein)
chain: SSSSSEYEEEVRELLEEAKEADERGDYERVKELLQKALELAKKNRDPELFRLIFEALRRFSSSSS
B32: il2ra_site1_3nfp_normal_mot_HHH_b2_01636_000000239_0001_1_19_H_._HHH_b2_04458_0002_0000400027_0000001_0_af2pred_0001_af2pred_1_swapped (protein)
chain: SSSSDEEELEELLEKLEEAIRNNDFKAAQKLSKEVAELILKTGDEEARRKLERLLRKAVKSSSSS
B33: il2ra_site1_1z92_sap_19_mot_HHH_b1_07792_af2_000000001_0001_1_16_H_._HHH_b1_05409_0001_0000200018_0000001_0_0001_af2pred_0001_af2pred_1 (protein)
chain: SSSSSSERNARIIVESLVRVARLSEEQQRILEELAERLVEEGYSFEEISRILDKEAEELDSSSSS
B34: il2ra_site1_1z92_sap_22_mot_HHH_b2_03302_000000138_0001_21_37_H_._HHH_b1_00461_0001_0000100001_0000001_0_0001_1 (protein)
chain: SLEEAAKLLQELAQDPWLEEILEKIVERIERGDPAARRLLERLLHDFLRLTGDPRLEELLEELRK
B35: il2ra_site1_2b5i_normal_mot_HHH_b1_02271_000000068_0001_1_16_H_._HHH_b1_08298_af2_0001_0000100004_0000001_0_af2pred_dldesign_0_af2pred (protein)
chain: SSSSSSSEVEKLIEEAKRLKEAGKRREALETLEEAYKLACAAGDEELEDKVEELARELSSSSSSS
B36: il2ra_site1_3nfp_sap_19_mot_119b7766384adbe86006a62bce89dba1_0001_af2_000000092_0001_18_32_H_._3633a07a64a68e62d76074d72b379c70_0001_1_af2_0001_0000100004_00000 … (protein)
chain: SSSSSALEFLERLAKRAFEEGDRRALRLLLEIIEKVLERTGTPEAEEVLEYIEELLRRLESSSSS
B37: il2ra_site2_3nfp_normal_mot_HHH_b2_05281_000000198_0001_39_56_H_._HHH_b2_05202_0001_0000600046_0000001_0 (protein)
chain: SSSSSDEEEERIEELLEEAKRVTDEEEVQKILAEATHLAFEANNPELFFEIAELAYELYSSSSSS

Molecular target: il2ra, P01589
Test: yeast display titration

Apparent Kd, inactive:
B1 no binding seen, B2 no binding seen, B3 no binding seen, B4 no binding seen, B5 no binding seen, B6 no binding seen, B7 no binding seen, B8 no binding seen, B9 no binding seen, B10 no binding seen, B11 no binding seen, B12 no binding seen, B13 no binding seen, B14 no binding seen, B15 no binding seen, B16 no binding seen, B17 no binding seen, B18 no binding seen, B19 no binding seen, B20 no binding seen, B21 no binding seen, B22 no binding seen, B23 no binding seen, B24 no binding seen, B25 no binding seen, B26 no binding seen, B27 no binding seen, B28 no binding seen, B29 no binding seen, B30 no binding seen, B31 no binding seen, B32 no binding seen, B33 no binding seen, B34 no binding seen, B35 no binding seen, B36 no binding seen, B37 no binding seen
